{
  "source": "patent US3959077A",
  "about": "(priority 1972, dated 1976)",
  "experiment": "serum cardiac glycoside levels in patients, measured with the present assay",
  "type": "in vivo, human",
  "conditions": "83 nontoxic patients; serum drawn at least 6 hours after last dose",
  "description": "Digoxin is extracted from patient serum or from plasma as follows: 5ml of serum or plasma is shaken for 30 seconds with 30ml of Chloroform in a 40ml glass-stoppered conical centrifuge tube, and centrifuged for 2 minutes at 1800 rpm (750 × g at tip). The milky top layer and fatty plug are removed with a teflon-tipped aspirator. The bottom chloroform layer is decanted into another 40ml centrifuge tube and evaporated to dryness in 3 to 5 minutes on a Buchler Evapomixer at 60°C. under vacuum. The digoxin thus extracted is rinsed down to the bottom of the tube with 1ml of ethyl ether and evaporated to dryness in a 50°C. water bath under a stream of filtered air.\n. The sample is mixed on a Vari-whirl vortex mixer for 20 seconds at full speed and centrifuged for 3 minutes at 1800 rpm. The top toluene layer is removed with a narrow, drawn-out pasteur pipet, and discarded. Duplicate 50μl tris aliquots of the bottom tris layer are then assayed in the same manner as for the standards described in Example 3. No quench correction is required. Only raw 1 or 2 minute counts need be used and the counts of duplicate aliquots are averaged. The amount of digoxin found in each aliquot is obtained by comparison with that day's standard curve.\nSerum digoxin levels were measured in 83 nontoxic patients on the medical wards of the Los Angeles County-University of Southern California Medical Center. […]",
  "note": "The name of at least one read-out is uncertain.",
  "data": [
    {"smiles": "C[C@H]1O[C@@H](O[C@H]2[C@@H](O)C[C@H](O[C@H]3[C@@H](O)C[C@H](O[C@H]4CC[C@@]5(C)[C@H](CC[C@@H]6[C@@H]5C[C@@H](O)[C@]5(C)[C@@H](C7=CC(=O)OC7)CC[C@]65O)C4)O[C@@H]3C)O[C@@H]2C)C[C@H](O)[C@@H]1O", "note": "[digoxin]", "values": [
      {"measurement": "mean serum digoxin level (1 S.D.)", "value": "1.43 ± 0.76", "unit": "Mg/ml"}
    ]}
  ]
}
